PubChem BioAssay AID1259254, NCATS | 2017
In all, the deposit lists about 59,000 reagents; below is a random part of them. About 1,550 of them (2.6%) count as active. 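G2 share is only a proxy for re-replication; each gene was hit by three separate siRNAs, and active genes were retested.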 Entries without a mark were called inactive. Reagents against one gene are numbered here. Further read-outs or replicates are left out here. Not given: the amount of reagent.

Purpose: 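Genome-wide screen for genes that prevent DNA re-replication in cancer cells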 (primary screen)
Cells: human HCT116 colorectal cancer cells
Reagent: single siRNA against human genes
Time to read-out: 3 days
Detection: 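Imaged Hoechst DNA stain sorts each cell into a cycle phase by DNA amount; per plate, G2 fraction set to 0% for non-targeting and 100% for GMNN siRNA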
Scale: G2 robust z-score: higher = more G2 cells, more excess DNA replication
Hit rule: 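An siRNA counts as active if its G2 robust z-score lies at least 5 MADs above the screen median; here such calls match roughly 38% of GMNN control or more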

After knock-down of SPANXN3 #1, the record shows G2 robust z-score -0.295.
SPANXN3 #2 showed G2 robust z-score 1.56.
After knock-down of SPANXN3 #3 the results were G2 robust z-score -0.579.
CHCHD4 #1 gave G2 robust z-score 0.324.
With knock-down of CHCHD4 #2, the screen gave G2 robust z-score 3.41.
For CHCHD4 #3, the values are G2 robust z-score -0.00271.
Against ZNF517 #1 the deposit lists G2 robust z-score -0.0308.
Against ZNF517 #2 the deposit lists G2 robust z-score 0.834.
ZNF517 #3 showed G2 robust z-score -0.26.
PTGES2 #1 gave G2 robust z-score 1.95.
For PTGES2 #2, the entry reads G2 robust z-score -0.649.
For PTGES2 #3, the values are G2 robust z-score 1.25.

Laid out differently: results already given.
Target gene	siRNA no.	G2 robust z-score
PTGES2	1	1.95
PTGES2	2	-0.649
